Results are given in words; binding and its absence hold for the method and conditions named. Binding can be weak; no strength is given.
How the values were obtained:
[1] = target: redIL-33 (detagged human IL33-01, BK349) (human) (UniProt O95760); assay: sandwich immunoassay (MedI Assay 2): IL330425 capture, biotinylated sST2.Fc detection; IL-33 titrated
[2] = target: redIL-33 (detagged human IL33-01, BK349) (human) (UniProt O95760); assay: sandwich immunoassay (MedI Assay 1): IL330004 capture, biotinylated IL330425 detection; IL-33 titrated

Chains of the proteins cited; added tags and fusions are not shown. Lines headed by an entry give the natural chain unless they say otherwise; changes in a name come on top.
UniProt O95760: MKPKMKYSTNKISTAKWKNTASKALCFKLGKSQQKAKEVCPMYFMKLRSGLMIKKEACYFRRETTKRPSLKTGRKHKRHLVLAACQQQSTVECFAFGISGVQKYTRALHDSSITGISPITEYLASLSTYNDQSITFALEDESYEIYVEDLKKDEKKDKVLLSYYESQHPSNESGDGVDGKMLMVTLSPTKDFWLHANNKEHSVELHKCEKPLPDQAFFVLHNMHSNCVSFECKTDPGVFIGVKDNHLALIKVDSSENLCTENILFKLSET

- binding [1]: binds
- binding [2]: binds
B1: IL330425 (antibody, V domains shown)
VH: QVQLVQSGGGVVQPGRSLRLSCAASGFTFSEYSMHWVRQAPGKGLEYVSTISSNGAGTYYADSVKGRVTISRDNSKNTLYVQMSSLRPEDTAVYYCVKSLTKYPYGNYFDYWGRGTTVTVSS
VL: SSELTQDPAVSVALGQTVRITCQGDSLRSYYASWYQQKPGQAPVLVIYGKNNRPSGIPDRFSGSSSGNTASLTITRAQAEDEADYYCNSRDSSGNHVVFGGGTKLTVL
